Measured values as given in the supplement of paper PMC6411743.
± gives the standard deviation of the averaged measurements. Only a part is listed here, and it is no random draw.

The chains behind the UniProt entries cited, without tags or fusion partners. Where a name states a change or a piece, a line headed by the entry shows the natural chain unless it says otherwise.
UniProt Q969S9: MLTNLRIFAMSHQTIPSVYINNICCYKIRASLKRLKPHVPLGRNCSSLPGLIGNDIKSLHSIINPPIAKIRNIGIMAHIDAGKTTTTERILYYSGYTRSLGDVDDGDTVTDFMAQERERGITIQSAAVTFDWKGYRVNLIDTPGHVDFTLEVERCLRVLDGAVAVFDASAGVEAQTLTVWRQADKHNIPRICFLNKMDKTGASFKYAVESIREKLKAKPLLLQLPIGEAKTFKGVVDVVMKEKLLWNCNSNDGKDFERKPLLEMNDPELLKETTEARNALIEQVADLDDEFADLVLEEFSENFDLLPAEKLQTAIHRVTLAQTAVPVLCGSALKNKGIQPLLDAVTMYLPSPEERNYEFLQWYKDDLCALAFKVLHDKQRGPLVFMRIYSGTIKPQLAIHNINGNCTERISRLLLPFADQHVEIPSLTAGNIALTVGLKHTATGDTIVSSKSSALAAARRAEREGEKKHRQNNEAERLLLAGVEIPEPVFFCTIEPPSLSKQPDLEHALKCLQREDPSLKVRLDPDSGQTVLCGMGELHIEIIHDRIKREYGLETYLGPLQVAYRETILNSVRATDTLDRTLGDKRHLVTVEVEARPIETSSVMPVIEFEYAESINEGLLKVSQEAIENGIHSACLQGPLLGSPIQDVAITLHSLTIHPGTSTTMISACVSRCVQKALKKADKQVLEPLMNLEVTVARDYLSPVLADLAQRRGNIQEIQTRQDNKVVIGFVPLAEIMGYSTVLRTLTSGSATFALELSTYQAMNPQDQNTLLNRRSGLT
UniProt Q93073: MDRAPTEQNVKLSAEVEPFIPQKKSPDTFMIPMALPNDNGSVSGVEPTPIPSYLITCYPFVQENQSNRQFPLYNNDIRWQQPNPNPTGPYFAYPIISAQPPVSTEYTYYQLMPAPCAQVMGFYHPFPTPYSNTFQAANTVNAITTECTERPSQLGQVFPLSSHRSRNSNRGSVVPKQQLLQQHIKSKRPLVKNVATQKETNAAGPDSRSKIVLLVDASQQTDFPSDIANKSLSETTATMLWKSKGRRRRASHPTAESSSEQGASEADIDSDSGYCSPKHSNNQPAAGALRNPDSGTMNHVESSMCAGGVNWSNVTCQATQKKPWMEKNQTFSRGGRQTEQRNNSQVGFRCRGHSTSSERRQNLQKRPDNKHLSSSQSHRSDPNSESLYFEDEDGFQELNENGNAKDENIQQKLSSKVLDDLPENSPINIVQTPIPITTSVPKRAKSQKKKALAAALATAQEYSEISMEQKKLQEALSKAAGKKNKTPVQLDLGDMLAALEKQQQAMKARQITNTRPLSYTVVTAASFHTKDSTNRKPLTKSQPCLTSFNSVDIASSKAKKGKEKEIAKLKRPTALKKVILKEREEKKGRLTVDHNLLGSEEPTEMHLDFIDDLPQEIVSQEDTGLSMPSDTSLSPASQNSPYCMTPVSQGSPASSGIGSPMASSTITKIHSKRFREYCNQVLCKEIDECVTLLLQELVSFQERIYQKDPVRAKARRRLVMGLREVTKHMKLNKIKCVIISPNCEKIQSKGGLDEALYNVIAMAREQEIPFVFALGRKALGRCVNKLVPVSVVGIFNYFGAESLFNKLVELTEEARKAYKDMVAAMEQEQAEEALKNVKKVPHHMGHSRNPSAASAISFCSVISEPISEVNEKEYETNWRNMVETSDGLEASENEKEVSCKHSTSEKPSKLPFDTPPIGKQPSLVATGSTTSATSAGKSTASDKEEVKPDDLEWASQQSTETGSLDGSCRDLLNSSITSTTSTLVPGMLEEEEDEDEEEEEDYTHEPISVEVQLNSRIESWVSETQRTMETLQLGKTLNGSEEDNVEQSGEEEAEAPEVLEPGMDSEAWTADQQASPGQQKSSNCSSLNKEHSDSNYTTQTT
UniProt Q96PE7: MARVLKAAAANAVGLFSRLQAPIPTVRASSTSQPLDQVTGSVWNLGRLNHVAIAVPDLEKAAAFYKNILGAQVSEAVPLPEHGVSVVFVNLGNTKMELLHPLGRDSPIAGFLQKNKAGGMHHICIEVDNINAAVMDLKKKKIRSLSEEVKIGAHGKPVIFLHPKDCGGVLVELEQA
UniProt Q96L73: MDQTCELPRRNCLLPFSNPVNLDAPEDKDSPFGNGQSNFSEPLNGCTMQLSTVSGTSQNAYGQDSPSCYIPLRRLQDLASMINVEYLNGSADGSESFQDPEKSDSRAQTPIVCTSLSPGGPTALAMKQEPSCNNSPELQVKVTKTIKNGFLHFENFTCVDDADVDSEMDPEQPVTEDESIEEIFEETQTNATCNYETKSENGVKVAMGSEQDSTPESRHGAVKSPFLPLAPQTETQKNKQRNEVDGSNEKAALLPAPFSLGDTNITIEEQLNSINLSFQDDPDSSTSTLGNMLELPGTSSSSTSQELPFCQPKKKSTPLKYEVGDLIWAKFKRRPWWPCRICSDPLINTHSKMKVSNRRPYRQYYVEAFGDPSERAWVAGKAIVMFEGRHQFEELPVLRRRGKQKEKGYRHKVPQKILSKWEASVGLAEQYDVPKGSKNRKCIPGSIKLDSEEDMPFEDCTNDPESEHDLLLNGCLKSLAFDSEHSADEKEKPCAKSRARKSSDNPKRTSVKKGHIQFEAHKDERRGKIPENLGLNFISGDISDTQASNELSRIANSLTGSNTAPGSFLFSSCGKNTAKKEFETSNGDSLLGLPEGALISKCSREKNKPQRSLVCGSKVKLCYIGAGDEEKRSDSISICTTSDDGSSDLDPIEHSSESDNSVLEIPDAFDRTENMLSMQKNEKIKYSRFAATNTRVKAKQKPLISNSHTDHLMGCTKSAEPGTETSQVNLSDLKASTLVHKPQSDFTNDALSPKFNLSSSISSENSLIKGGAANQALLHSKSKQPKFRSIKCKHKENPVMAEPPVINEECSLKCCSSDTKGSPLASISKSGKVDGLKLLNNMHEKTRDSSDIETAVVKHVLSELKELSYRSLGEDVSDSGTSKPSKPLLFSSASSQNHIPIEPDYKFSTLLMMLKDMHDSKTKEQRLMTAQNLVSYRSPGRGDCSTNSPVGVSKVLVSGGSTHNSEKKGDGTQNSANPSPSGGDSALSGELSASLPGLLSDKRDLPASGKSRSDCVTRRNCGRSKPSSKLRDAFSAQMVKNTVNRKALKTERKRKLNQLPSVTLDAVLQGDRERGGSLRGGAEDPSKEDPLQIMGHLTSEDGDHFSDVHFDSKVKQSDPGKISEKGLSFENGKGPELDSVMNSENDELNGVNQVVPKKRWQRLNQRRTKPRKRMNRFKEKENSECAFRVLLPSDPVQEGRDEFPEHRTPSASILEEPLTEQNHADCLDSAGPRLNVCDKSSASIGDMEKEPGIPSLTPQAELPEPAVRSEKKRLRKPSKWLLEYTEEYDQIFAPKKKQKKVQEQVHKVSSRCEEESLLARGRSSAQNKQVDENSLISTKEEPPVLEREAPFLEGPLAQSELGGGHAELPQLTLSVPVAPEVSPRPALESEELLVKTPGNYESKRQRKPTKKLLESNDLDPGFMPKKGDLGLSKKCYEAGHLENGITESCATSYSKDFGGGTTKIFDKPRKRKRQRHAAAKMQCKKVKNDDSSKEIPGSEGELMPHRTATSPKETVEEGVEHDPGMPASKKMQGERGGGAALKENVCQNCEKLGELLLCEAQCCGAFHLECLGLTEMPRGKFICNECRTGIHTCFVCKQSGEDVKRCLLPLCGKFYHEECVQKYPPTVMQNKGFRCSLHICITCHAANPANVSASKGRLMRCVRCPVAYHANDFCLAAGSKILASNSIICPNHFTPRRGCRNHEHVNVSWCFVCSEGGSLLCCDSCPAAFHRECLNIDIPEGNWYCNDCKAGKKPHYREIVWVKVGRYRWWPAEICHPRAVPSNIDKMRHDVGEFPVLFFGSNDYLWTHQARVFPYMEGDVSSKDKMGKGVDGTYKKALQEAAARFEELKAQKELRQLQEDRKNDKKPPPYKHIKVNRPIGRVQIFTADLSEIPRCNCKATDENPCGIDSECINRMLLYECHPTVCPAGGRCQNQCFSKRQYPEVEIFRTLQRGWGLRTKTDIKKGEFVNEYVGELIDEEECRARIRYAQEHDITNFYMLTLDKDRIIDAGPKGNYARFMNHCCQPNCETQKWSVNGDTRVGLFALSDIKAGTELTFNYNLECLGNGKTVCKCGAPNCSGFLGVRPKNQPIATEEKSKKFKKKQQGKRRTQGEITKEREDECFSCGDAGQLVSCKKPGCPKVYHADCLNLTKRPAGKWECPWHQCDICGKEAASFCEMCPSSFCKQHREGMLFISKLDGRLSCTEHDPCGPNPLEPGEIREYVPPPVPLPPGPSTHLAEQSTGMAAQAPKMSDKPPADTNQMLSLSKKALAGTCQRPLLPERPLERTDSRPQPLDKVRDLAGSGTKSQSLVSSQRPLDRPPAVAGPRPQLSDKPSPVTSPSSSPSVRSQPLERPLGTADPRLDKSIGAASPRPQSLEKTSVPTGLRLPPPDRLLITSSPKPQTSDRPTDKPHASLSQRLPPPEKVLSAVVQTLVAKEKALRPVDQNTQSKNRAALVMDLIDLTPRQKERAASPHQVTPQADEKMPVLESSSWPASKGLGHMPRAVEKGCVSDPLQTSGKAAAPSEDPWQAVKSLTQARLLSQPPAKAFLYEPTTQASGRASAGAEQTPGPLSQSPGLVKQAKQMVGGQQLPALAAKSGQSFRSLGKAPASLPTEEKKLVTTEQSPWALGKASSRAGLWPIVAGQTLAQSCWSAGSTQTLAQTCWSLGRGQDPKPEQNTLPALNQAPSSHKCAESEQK
UniProt Q96ER9: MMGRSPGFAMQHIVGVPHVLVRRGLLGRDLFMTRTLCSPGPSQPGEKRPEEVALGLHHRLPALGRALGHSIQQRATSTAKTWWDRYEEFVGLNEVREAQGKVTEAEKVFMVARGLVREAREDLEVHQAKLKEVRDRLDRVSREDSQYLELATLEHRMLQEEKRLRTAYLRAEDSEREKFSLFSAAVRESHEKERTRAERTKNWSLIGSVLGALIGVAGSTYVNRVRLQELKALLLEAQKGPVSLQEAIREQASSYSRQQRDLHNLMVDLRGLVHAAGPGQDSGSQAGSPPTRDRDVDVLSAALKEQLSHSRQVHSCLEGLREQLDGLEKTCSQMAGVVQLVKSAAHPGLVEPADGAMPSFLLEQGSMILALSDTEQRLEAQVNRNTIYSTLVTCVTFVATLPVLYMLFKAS
UniProt Q96IZ6: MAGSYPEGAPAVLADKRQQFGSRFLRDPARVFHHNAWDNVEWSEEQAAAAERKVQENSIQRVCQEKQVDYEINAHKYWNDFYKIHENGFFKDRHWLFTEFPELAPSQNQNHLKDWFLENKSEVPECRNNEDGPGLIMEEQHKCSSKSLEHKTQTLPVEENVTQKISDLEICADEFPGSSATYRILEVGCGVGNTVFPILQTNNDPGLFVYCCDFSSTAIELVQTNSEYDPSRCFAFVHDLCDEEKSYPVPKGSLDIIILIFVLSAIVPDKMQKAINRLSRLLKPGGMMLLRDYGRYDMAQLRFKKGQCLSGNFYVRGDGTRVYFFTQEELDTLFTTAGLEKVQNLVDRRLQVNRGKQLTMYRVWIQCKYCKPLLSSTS
UniProt Q96DC7: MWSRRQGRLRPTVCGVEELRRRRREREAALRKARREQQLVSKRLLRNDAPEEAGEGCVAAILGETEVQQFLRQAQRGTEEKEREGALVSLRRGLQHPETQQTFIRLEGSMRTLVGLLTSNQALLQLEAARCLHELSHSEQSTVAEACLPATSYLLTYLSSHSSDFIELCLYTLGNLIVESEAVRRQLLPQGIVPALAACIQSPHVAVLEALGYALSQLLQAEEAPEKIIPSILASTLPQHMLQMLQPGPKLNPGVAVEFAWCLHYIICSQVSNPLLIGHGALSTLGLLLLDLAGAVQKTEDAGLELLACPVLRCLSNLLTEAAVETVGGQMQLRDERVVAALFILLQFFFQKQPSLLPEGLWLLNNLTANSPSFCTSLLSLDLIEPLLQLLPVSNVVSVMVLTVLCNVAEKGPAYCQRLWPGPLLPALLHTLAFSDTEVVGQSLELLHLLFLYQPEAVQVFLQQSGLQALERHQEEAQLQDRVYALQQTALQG
UniProt Q92979: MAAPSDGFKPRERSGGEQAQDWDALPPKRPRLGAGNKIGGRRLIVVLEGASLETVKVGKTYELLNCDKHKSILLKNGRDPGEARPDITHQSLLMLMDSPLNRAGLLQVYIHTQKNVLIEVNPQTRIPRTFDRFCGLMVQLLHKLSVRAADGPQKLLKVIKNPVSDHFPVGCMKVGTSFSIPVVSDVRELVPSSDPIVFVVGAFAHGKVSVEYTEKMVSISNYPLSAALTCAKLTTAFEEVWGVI
UniProt Q96PM5: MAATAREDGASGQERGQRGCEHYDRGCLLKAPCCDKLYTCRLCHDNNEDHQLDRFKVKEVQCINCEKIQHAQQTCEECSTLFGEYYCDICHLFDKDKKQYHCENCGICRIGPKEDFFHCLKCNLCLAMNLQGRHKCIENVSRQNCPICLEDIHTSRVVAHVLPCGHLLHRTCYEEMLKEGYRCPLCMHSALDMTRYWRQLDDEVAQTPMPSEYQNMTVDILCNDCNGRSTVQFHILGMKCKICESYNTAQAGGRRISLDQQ

Compound: Nc1ncnc2c1ncn2[C@@H]1O[C@H](COP(=O)(O)OP(=O)(O)NP(=O)(O)O)[C@@H](O)[C@H]1O [adenylyl imidodiphosphate]
Assay: NP40-soluble protein abundance relative to vehicle (solubility fold change) (ratio); higher = more soluble protein in presence of AMP-PNP
In short: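 Data come from three independent experiments in which Dounce-homogenised Jurkat crude lysate was treated at eight concentrations from 0.1 to 10 mM. Treatment ran 10 min at room temperature and then 3 min at 37 °C, after which 0.8% NP40 and benzonase were added for 60 min at 4 °C before ultracentrifugation. The supernatant underwent TMT labelling and LC-MS/MS, and vsn-normalised intensities were expressed as fold change against the detergent-processed vehicle in each replicate.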

Target	NP40-soluble protein abundance (concentration: 1mM)	NP40-soluble protein abundance (concentration: 2mM)	NP40-soluble protein abundance (concentration: 4mM)	NP40-soluble protein abundance (concentration: 6mM)	NP40-soluble protein abundance (concentration: 8mM)	NP40-soluble protein abundance (concentration: 10mM)
GCC1 (UniProt Q96CN9)	1.022 ± 0.0097	1.06 ± 0.055	1.051 ± 0.0087	0.978 ± 0.028	0.962 ± 0.019	1.01 ± 0.012
SENP8 (UniProt Q96LD8)	1.01 ± 0.019	0.974 ± 0.044	1.01 ± 0.039	0.985 ± 0.04	0.987 ± 0.023	0.971 ± 0.026
KTI12 (UniProt Q96EK9)	0.998 ± 0.025	1.08 ± 0.08	1 ± 0.052	0.9826 ± 0.0053	0.987 ± 0.044	0.988 ± 0.015
TBRG4 (UniProt Q969Z0)	0.984 ± 0.03	0.953 ± 0.033	0.955 ± 0.012	0.959 ± 0.028	0.941 ± 0.022	0.935 ± 0.054
UniProt Q96G28 and related entries	0.997 ± 0.055	1.07 ± 0.043	0.966 ± 0.083	0.943 ± 0.031	0.943 ± 0.043	0.922 ± 0.098
UniProt Q969Y2 and related entries	0.9695 ± 0.0083	0.959 ± 0.046	0.965 ± 0.023	0.964 ± 0.035	0.968 ± 0.017	0.9655 ± 0.0079
ZC3H10 (UniProt Q96K80)	1.02 ± 0.03	1.04 ± 0.015	1.01 ± 0.057	0.977 ± 0.036	0.986 ± 0.06	0.971 ± 0.054
UniProt Q969S9 and related entries	0.991 ± 0.033	0.967 ± 0.029	1.01 ± 0.038	0.988 ± 0.012	0.989 ± 0.011	0.951 ± 0.012
UniProt Q96HE7	1.05 ± 0.013	1.06 ± 0.036	1.04 ± 0.035	1.05 ± 0.071	1.07 ± 0.044	1.09 ± 0.052
UniProt Q93073 and related entries	0.997 ± 0.026	1.01 ± 0.046	0.978 ± 0.039	0.996 ± 0.013	0.972 ± 0.024	0.971 ± 0.027
MCEE (UniProt Q96PE7)	0.998 ± 0.04	1.01 ± 0.04	0.997 ± 0.046	1.06 ± 0.036	1.03 ± 0.08	1.05 ± 0.1
UniProt Q969M3 and related entries	1.01 ± 0.014	1.024 ± 0.0049	1.0062 ± 0.00062	1 ± 0.021	0.998 ± 0.018	0.998 ± 0.025
ZBTB10 (UniProt Q96DT7)	0.99 ± 0.022	0.997 ± 0.011	1.03 ± 0.034	0.994 ± 0.042	0.975 ± 0.022	0.996 ± 0.025
UniProt Q96L73 and related entries	1.03 ± 0.022	1.02 ± 0.1	1.02 ± 0.035	1.04 ± 0.031	1.02 ± 0.016	1.064 ± 0.0032
UniProt Q96BY9 and related entries	1.008 ± 0.01	1.03 ± 0.037	1.02 ± 0.029	1.02 ± 0.028	1.02 ± 0.035	1.02 ± 0.025
UniProt Q93074-2	1.01 ± 0.032	1 ± 0.028	1.06 ± 0.019	0.971 ± 0.08	0.984 ± 0.042	0.999 ± 0.067
SLC7A6OS (UniProt Q96CW6)	1.02 ± 0.033	1.06 ± 0.071	1.05 ± 0.042	1.02 ± 0.022	1.01 ± 0.013	1.01 ± 0.046
CCDC51 (UniProt Q96ER9)	1.03 ± 0.05	1.07 ± 0.023	1.02 ± 0.011	1.01 ± 0.023	0.981 ± 0.02	1.04 ± 0.012
METTL2A (UniProt Q96IZ6)	0.9933 ± 0.0023	1 ± 0.0024	0.974 ± 0.014	0.9925 ± 0.0071	0.99527 ± 0.00081	0.978 ± 0.026
ZKSCAN4 (UniProt Q969J2)	0.98477 ± 0.00071	0.996 ± 0.023	0.953 ± 0.014	0.992 ± 0.042	1.01 ± 0.041	1.03 ± 0.07
PURB (UniProt Q96QR8)	1 ± 0.019	0.996 ± 0.057	1.04 ± 0.029	1.04 ± 0.045	1.042 ± 0.01	1.08 ± 0.055
UniProt Q96II8 and related entries	1.026 ± 0.0073	1.01 ± 0.035	1.04 ± 0.041	1.01 ± 0.057	1.01 ± 0.08	1.06 ± 0.092
UniProt Q96L91 and related entries	1.03 ± 0.036	1.09 ± 0.038	1.05 ± 0.028	1.05 ± 0.061	1.03 ± 0.057	1.1 ± 0.084
UniProt Q96DC7 and related entries	1 ± 0.03	1 ± 0.033	0.986 ± 0.02	1.02 ± 0.03	1.01 ± 0.044	0.996 ± 0.029
RNF31 (UniProt Q96EP0)	0.966 ± 0.016	0.96 ± 0.025	0.963 ± 0.028	0.9189 ± 0.003	0.904 ± 0.02	0.8976 ± 0.0037
EMG1 (UniProt Q92979)	1.01 ± 0.03	1 ± 0.014	1.12 ± 0.087	1.19 ± 0.071	1.24 ± 0.096	1.26 ± 0.1
UniProt Q96BR5	1.01 ± 0.029	1.04 ± 0.065	0.999 ± 0.025	1.06 ± 0.023	1.043 ± 0.0083	1.05 ± 0.018
UniProt Q93008 and related entries	0.978 ± 0.018	0.899 ± 0.09	0.968 ± 0.041	0.9306 ± 0.0079	0.965 ± 0.036	0.907 ± 0.038
RCHY1 (UniProt Q96PM5)	1.02 ± 0.027	1.02 ± 0.043	0.991 ± 0.052	0.951 ± 0.028	0.9727 ± 0.0089	0.914 ± 0.026
PTER (UniProt Q96BW5)	0.958 ± 0.016	0.915 ± 0.025	0.991 ± 0.029	1.02 ± 0.049	1.01 ± 0.036	1.01 ± 0.033

A few values from the results shown:
In NP40-soluble protein abundance (concentration: 4mM), METTL2A (UniProt Q96IZ6) reads 0.974 ± 0.014
In NP40-soluble protein abundance (concentration: 6mM), ZBTB10 (UniProt Q96DT7) reads 0.994 ± 0.042
